Measured values published in US20240173333A1, “Treating Alagille Syndrome (ALGS)” (priority 2022, published 2024).
For at least one compound, name, drawing or mass did not settle the structure.

Test system: pediatric patient with genetic confirmation of ALGS
Conditions: UDCA 15 mg/kg body weight; naltrexone 1 mg/kg/day; before odevixibat
Source text: The ileal bile acid transporter (IBAT) is a regulator of the enterohepatic bile acid circulation (Karpen et al.). Given the central feature of cholestasis in ALGS and the role of IBAT in bile acid homeostasis, IBAT inhibitors may help alleviate symptoms of ALGS. The IBAT inhibitor odevixibat is indicated for treatment of pruritus in patients ≥3 months old with progressive familial intrahepatic cholestasis (PFIC), another pediatric cholestatic liver disease, in the US and for treatment of PFIC in patients aged ≥6 months in the European Union.
The patient was referred to specialist care […]. […] […], a liver biopsy was performed.
During this clinical course, the patient received UDCA (15 mg/kg body weight) and naltrexone (1 mg/kg/day), treatments that were pursued according to German treatment guidelines and following discussions among the care team and with the patient's parents.

Question: Which “clinical improvement (sBAs, bilirubin, liver enzymes, pruritus)” value does the source give for `C[C@H](CCC(=O)O)[C@H]1CC[C@H]2[C@@H]3[C@@H](O)C[C@@H]4C[C@H](O)CC[C@]4(C)[C@H]3CC[C@]12C` [UDCA, ursodeoxycholic acid, reference compound] here?
Answer: No significant clinical improvement
